Experimental data as given in doi:10.1101/2022.03.27.485962.
These are yes or no findings as the source states them, for the method shown. Binding seen in cells or lysates may run through a third protein. Some results given as binding are weak or reduced against the parent protein; the word gives no strength.

The chains behind the UniProt entries cited, without tags or fusion partners. Residues count along the entry.
UniProt P0DTX1: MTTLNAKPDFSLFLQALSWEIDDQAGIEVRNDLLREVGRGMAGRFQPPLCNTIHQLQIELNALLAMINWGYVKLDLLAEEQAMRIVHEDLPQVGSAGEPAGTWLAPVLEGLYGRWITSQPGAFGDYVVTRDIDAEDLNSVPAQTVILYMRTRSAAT
UniProt O82861, residues 31-1326: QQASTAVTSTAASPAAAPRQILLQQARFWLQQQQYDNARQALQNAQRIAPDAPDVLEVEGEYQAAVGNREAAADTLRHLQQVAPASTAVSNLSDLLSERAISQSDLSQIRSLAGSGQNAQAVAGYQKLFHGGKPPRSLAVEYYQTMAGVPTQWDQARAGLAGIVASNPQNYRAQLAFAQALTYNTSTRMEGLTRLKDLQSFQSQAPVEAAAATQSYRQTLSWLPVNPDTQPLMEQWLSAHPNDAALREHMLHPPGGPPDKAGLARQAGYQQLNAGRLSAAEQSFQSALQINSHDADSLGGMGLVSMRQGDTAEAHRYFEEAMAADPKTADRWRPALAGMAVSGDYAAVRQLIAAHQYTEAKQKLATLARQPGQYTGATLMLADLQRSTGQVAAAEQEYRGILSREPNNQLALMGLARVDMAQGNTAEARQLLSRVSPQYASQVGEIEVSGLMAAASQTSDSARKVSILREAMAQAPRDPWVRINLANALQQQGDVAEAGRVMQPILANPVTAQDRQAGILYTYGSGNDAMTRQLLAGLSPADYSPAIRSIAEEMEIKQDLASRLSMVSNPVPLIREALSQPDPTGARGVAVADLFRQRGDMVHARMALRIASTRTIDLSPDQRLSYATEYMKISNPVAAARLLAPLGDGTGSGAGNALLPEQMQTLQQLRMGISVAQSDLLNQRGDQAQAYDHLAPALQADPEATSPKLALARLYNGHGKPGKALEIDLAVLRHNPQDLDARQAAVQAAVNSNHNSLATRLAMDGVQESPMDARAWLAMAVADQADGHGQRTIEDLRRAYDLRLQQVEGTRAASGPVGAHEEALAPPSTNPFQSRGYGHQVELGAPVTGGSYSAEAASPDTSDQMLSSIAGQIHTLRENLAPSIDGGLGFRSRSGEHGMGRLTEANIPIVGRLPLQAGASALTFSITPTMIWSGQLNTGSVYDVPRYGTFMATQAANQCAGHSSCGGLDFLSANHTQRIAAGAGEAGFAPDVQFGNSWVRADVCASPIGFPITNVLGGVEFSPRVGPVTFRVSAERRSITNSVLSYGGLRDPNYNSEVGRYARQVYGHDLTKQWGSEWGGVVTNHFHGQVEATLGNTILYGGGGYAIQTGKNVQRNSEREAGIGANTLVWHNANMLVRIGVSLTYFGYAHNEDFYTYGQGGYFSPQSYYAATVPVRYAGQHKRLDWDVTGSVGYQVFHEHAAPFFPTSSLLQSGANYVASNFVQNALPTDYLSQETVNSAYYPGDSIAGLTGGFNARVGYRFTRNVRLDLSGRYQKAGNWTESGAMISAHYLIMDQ

Molecular target: BcsD with a hexa-histidine tag attached to the C-terminus (Komagataeibacter sucrofermentans JCM9730 (BPR2001)) (UniProt P0DTX1)
Assay: pull-down

Substance: BcsC, full-length protein, without tag (from UniProt O82861 31-1326)
- binding: binds
